Experimental data: paper PMC6925144, “A prospective compound screening contest identified broader inhibitors for Sirtuin 1” (Scientific Reports, 2019)
Whole data set: some 3,200 compounds, median “TSA(without NAD+) / Primary screening (TSA) / delta Tm (K)” near -0.07, cut for the highest 2% near 0.37. Some of the results follow.

By UniProt entry, the sequences of proteins in these tests, tags left out. Residues count along the entry.
UniProt Q96EB6, 2-747 limits assumed: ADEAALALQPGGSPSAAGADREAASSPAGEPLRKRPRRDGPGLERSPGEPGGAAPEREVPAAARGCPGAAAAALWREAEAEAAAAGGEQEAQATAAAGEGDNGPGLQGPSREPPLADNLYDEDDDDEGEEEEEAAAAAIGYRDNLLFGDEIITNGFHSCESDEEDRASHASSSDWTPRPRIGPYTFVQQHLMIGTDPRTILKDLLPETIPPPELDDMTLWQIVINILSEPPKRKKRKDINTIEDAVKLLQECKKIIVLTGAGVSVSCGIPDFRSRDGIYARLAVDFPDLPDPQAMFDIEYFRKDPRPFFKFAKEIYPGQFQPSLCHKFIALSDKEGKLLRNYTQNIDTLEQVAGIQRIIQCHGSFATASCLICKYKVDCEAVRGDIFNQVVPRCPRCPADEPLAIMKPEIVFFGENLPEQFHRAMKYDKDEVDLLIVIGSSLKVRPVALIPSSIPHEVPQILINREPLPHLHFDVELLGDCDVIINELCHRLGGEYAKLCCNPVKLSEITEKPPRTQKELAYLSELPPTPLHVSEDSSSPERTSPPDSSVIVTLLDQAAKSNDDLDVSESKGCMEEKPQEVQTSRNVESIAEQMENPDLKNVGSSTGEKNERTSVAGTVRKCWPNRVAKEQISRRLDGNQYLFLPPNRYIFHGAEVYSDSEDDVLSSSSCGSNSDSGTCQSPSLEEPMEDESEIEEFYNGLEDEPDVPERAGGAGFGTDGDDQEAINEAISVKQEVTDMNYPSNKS

The compounds below were run against NAD-dependent deacetylase Sirtuin 1 (human, UniProt Q96EB6) (assay: primary screen, delta tm). Conditions: 10 µM.
Design: single well (n = 1)
Outline: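 Thermal shift of Sirtuin 1 measured without NAD+, compound at 10 µM (n = 1); value is ΔTm, with hits defined as ΔTm > 0.45 K or < −1.5 K. Hits retested at 5, 10, 20 µM (n = 4) and counterscreened on bovine carbonic anhydrase and ABL1 SH2 domain.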

Row | SMILES | TSA(without NAD+) / Primary screening (TSA) / delta Tm (K)
1 | O=C(OCc1ccc(COC(=O)c2ccncc2)cc1)c1ccncc1 | -0.07
2 | Cc1ccc2c(c1)CCCN2C(=O)CCn1ncc(=O)c2ccccc21 | -0.22
3 | Cc1ccc2[nH]c(C(=O)O)cc2c1 | -0.11
4 | N#Cc1ccccc1CN1CCC(OC(=O)C2=COCC2)CC1 | -0.23
5 | CCc1nn2c(=O)cc(CN3CCCc4ccccc43)nc2s1 | -0.08
6 | COc1cccc(C(=O)C2=C(O)C(=O)N(CCCN3CCOCC3)C2c2ccc(C)cc2)c1 (centres unmarked) | -0.12
7 | COc1ccc(N(C)S(=O)(=O)c2cccc(C(=O)Nc3sccc3C#N)c2)cc1 | 0.03
8 | CCOC(=O)c1c(NC(=O)C(C)OC(=O)CNC(=O)c2cc(C)cc(C)c2)sc2c1CCC(C)C2 (centres unmarked) | -0.05
9 | Cc1cncc(CCCN2CCN(c3ccc(C#N)cc3F)CC2)c1 | -0.05
10 | O=c1[nH]cnc2c1cnn2-c1cccc(Cl)c1 | -0.13
11 | CCCOc1ccc(C(=O)C2=C(O)C(=O)N(CCCN3CCOCC3)C2c2cccc(OC)c2)cc1 (centres unmarked) | -0.02
12 | COc1ccc(C(=O)C2=C(O)C(=O)N(CCCN3CCOCC3)C2c2ccc(N(C)C)cc2)cc1 (centres unmarked) | -0.23
13 | CCCCOc1cc(C2NC(N)=Nc3nc4ccccc4n32)ccc1OC (centres unmarked) | -0.17
14 | CCc1cc2c(N3CCCC(C)C3)ncnc2s1 (centres unmarked) | -0.28
15 | C=C(C)COCCN | -0.13
16 | c1ccc2sc(-c3nc4c5ccccc5ncn4n3)cc2c1 | 0.17
17 | O=C(COC(=O)CNC(=O)C12CC3CC(CC(C3)C1)C2)Nc1ccccc1Cc1ccccc1 | 0.13
18 | COc1ccc2nc(C)cc(N3CCN(S(=O)(=O)/C=C/c4ccccc4)CC3)c2c1 | -0.07
19 | Cc1ccc(C(=O)CSc2nc3ccsc3c(=O)n2C)s1 | -0.18
20 | CC(C#N)(NC(=O)COC(=O)c1cc(-c2ccc(O)cc2)nc2ccccc12)C1CC1 (centres unmarked) | 0.17
21 | Cc1nc(CSc2nncs2)oc1-c1ccc(Cl)cc1 | -0.22
22 | COc1ccc(C(=O)OC(C)C(=O)Nc2ccc(C(N)=O)cc2)c(OC)c1 (centres unmarked) | 0.15
23 | Cc1ccc(C(=O)CCC(=O)Nc2cc(C(N)=O)ccc2N2CCCC2)cc1 | -0.14
24 | Cn1ncc2c(=O)[nH]c(N3CCC(c4cc5ccccc5[nH]4)CC3)nc21 | -0.23
25 | NCCCCS(=O)(=O)O | -0.23
26 | CN(Cc1ccc(Cl)s1)c1cc(=O)n2ccccc2n1 | -0.12

An excerpt from the list above:
Row | SMILES | TSA(without NAD+) / Primary screening (TSA) / delta Tm (K)
17 | O=C(COC(=O)CNC(=O)C12CC3CC(CC(C3)C1)C2)Nc1ccccc1Cc1ccccc1 | 0.13
18 | COc1ccc2nc(C)cc(N3CCN(S(=O)(=O)/C=C/c4ccccc4)CC3)c2c1 | -0.07
